Test results from publication PMC8500273.
Results are given in words; binding and its absence hold for the method and conditions named. Binding seen in cells or lysates may run through a third protein. Some results given as binding are weak or reduced against the parent protein; the word gives no strength. Sequences can lack the tags named with a protein.

Protein sequences, listed by entry. Tags and fused reporters are not part of them.
UniProt P61081: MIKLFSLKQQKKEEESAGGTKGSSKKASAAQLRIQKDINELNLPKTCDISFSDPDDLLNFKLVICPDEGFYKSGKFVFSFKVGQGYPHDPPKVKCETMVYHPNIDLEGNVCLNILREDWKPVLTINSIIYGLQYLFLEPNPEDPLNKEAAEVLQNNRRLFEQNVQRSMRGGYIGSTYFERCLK
UniProt P31146: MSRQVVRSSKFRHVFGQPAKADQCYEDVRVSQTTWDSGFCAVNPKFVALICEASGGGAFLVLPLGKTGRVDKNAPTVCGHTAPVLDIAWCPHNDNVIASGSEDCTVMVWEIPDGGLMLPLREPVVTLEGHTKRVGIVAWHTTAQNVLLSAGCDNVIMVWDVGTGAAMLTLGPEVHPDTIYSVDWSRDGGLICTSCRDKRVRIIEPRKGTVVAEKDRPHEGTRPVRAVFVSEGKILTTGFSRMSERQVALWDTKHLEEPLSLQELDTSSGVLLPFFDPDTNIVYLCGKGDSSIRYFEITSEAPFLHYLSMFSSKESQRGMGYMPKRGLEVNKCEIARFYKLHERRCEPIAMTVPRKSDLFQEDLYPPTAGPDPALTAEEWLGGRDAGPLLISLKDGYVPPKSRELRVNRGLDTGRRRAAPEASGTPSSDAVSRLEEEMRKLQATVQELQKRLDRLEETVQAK

T1: mCherry-hTRIM4-His (human) (UniProt Q9C037)
T1 sequence: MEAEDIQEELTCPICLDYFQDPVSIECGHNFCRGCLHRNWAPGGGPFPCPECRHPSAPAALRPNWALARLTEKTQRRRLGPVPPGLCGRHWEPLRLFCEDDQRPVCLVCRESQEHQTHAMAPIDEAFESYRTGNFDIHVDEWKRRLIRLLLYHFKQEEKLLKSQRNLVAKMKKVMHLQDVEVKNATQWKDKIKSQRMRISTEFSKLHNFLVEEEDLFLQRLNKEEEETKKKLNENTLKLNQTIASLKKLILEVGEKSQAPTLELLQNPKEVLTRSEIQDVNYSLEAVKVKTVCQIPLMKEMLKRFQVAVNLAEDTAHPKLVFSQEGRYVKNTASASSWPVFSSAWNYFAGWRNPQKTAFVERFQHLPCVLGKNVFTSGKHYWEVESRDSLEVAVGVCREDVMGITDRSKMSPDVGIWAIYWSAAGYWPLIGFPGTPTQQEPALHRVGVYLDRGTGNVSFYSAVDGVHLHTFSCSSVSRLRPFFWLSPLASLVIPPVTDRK

T2: UBE2F-Myc-His (human) (UniProt Q969M7)
T2 sequence: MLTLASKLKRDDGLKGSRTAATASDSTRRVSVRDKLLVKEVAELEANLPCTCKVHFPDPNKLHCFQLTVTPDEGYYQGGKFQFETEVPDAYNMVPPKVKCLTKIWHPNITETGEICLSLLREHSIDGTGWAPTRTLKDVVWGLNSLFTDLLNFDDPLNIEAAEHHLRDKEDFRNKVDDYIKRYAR


Columns and labels:
Experiment in all cases: co-IP; HEK293 cells overexpressing the tagged proteins; Co-IP lysis buffer (50 mM Tris-HCl, 5 mM EDTA, 150 mM NaCl, 0.5% Nonidet-P40, 10% glycerol, pH 7.4); M2-Flag, anti-His or anti-Myc beads overnight at 4°C; western blot; for Coro1a with Rab7a also with Trim4 siRNA and 100 nM MLN4924 for 12 h
[1] = target: T1, mCherry-hTRIM4-His (human)
UBE2F-Myc-His (human) = target: T2, UBE2F-Myc-His (human)
[2] = target: hUBE2M tagged with Myc (human) (UniProt P61081)

binding [1]	binding (UBE2F-Myc-His (human))	binding [2]	Molecule
binds			mCherry-hCoro1a-Flag (from UniProt P31146 1-461)
	binds	binds weakly	mCherry-hTRIM4-His (enzyme, UniProt Q9C037 1-500) MEAEDIQEELTCPICLDYFQDPVSIECGHNFCRGCLHRNWAPGGGPFPCPECRHPSAPAALRPNWALARLTEKTQRRRLGPVPPGLCGRHWEPLRLFCEDDQRPVCLVCRESQEHQTHAMAPIDEAFESYRTGNFDIHVDEWKRRLIRLLLYHFKQEEKLLKSQRNLVAKMKKVMHLQDVEVKNATQWKDKIKSQRMRISTEFSKLHNFLVEEEDLFLQRLNKEEEETKKKLNENTLKLNQTIASLKKLILEVGEKSQAPTLELLQNPKEVLTRSEIQDVNYSLEAVKVKTVCQIPLMKEMLKRFQVAVNLAEDTAHPKLVFSQEGRYVKNTASASSWPVFSSAWNYFAGWRNPQKTAFVERFQHLPCVLGKNVFTSGKHYWEVESRDSLEVAVGVCREDVMGITDRSKMSPDVGIWAIYWSAAGYWPLIGFPGTPTQQEPALHRVGVYLDRGTGNVSFYSAVDGVHLHTFSCSSVSRLRPFFWLSPLASLVIPPVTDRK
